The other results are listed elsewhere or left out.

Chains of the proteins cited; added tags and fusions are not shown.
UniProt Q0JBA9, entry or part of it: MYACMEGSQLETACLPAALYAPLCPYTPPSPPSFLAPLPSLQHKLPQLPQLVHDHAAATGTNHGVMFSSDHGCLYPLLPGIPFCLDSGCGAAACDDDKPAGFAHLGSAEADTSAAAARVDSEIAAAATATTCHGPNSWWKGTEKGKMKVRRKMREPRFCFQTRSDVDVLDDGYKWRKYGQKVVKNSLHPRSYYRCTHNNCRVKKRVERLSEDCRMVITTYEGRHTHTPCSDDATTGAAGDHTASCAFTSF

For this assay, the target named is OsWRKY34 (Oryza sativa, UniProt Q0JBA9 1-250). The assay can be described thus: protein-binding microarray (RPBM); PBS, 2% BSA, 51.3 ng/ul salmon testes DNA, 50 uM zinc acetate, 200 nM TF, 25 C, 1 h; high values mean tight binding. As to conditions: protein: recombinant; tags: N-terminal polyhistidine and DsRed monomer fusion (pET32a); label: CyDye5-dUTP incorporated in the synthesized complementary strand; 3' TTTTT single-stranded linker to array surface; dsDNA, one strand shown. A digest of the protocol: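 For the binding signal, per-feature fluorescence intensity was read in arbitrary units on an Axon 4000B scanner. Before scanning, a 2% BSA-blocked custom Agilent array made double-stranded with Cy5-dUTP was washed after 1 h at 25 °C with 200 nM protein and 50 µM zinc acetate. The proteins were Ni–NTA-purified transcription factors with N-terminal polyhistidine and DsRed fusions, expressed in E. coli BL21-CodonPlus.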
Turning to “CATGTGGCTAGAGCTCGAATGTAGTACATTTTGCAATTTACGGAGTCACCTAGTGCAG”, the binding signal is 8560 fluorescence intensity (a.u.).

For the sequence “TACCCACCCGACACTTAATTTTTTATCCCAACCAGCTCAACGGAGTCACCTAGTGCAG”, the binding signal was 9130 fluorescence intensity (a.u.).

On to “ATTAGCGATGTGTTGTGGTGACTTCATTAATATTAAGATACGGAGTCACCTAGTGCAG”, for which the binding signal was 8750 fluorescence intensity (a.u.).

In the case of “TAAGGGTGTGTGGTGAAATTAACTAACATATGTTATGTGTCGGAGTCACCTAGTGCAG”, the binding signal was 8150 fluorescence intensity (a.u.).

For the sequence “CTCTCTCTCACACACACACACATCTCTCGATCGCTTGGACCGGAGTCACCTAGTGCAG”, the binding signal is 9250 fluorescence intensity (a.u.).

As to “TACTAGTCAATGCACATATATAAGTATTCATTGATCATCCCGGAGTCACCTAGTGCAG”, the binding signal was 8530 fluorescence intensity (a.u.).

Regarding “CCCCGCGCGCGTTCTCCCCTCGCCCGCCGCCTGCGCGCCTCGGAGTCACCTAGTGCAG”, the binding signal was 8210 fluorescence intensity (a.u.).

For the sequence “CCTATCCACGAAAGATTTCAGTTCCCAACACCTATATCTTCGGAGTCACCTAGTGCAG”, the binding signal is 9020 fluorescence intensity (a.u.).

Regarding “GAGTTTGTTTGACATTCCTTATCCTCAATATCAGAAATTTCGGAGTCACCTAGTGCAG”, the binding signal is 8420 fluorescence intensity (a.u.).

On to “ACCACCGCATCCCCAACACCTCACCTCACCTCCTTACACCCGGAGTCACCTAGTGCAG”, for which the binding signal was 8180 fluorescence intensity (a.u.).

Regarding “AACGTCAAATCTGTACAAGGCTATTCCTTCGTCATAATATCGGAGTCACCTAGTGCAG”, the binding signal is 9250 fluorescence intensity (a.u.).

As to “AGTCGACCCTGCCCACTGAAAAGTTCTCATCTTGTCGGCGCGGAGTCACCTAGTGCAG”, the binding signal is 9900 fluorescence intensity (a.u.).

As for “CCCTTCTTTCCTTCCTTCCTACCGGCCTGCACTGCACCTTCGGAGTCACCTAGTGCAG”, the binding signal is 8280 fluorescence intensity (a.u.).

For “CACCACACACCTGCCGGCCCATCTGCCTACGCGTCCTGTACGGAGTCACCTAGTGCAG”, the binding signal was 8040 fluorescence intensity (a.u.).

Consider “GCGGCCGGCCGAGGGGTGGGAGCCGTCCGATCGCGGCGCGCGGAGTCACCTAGTGCAG”, for which the binding signal is 8550 fluorescence intensity (a.u.).

Turning to “TGCTGTACGTCACCCCTGGTTTGACACTCGCGCGCAGCCTCGGAGTCACCTAGTGCAG”, the binding signal is 11300 fluorescence intensity (a.u.).

On to “TTCTCTATATTCTTTTAGATATCTCATCCCAGCCAATTCTCGGAGTCACCTAGTGCAG”, for which the binding signal was 8210 fluorescence intensity (a.u.).

As for “TGTTGGTCGCCTACAGTCAGTTAGTACTTCCTAGTTCACTCGGAGTCACCTAGTGCAG”, the binding signal was 8830 fluorescence intensity (a.u.).

For “GCGGCTTCGCCTCCTCGTGATTTGGGGCGCGGGTGGGTGGCGGAGTCACCTAGTGCAG”, the binding signal is 12400 fluorescence intensity (a.u.).

For the sequence “TGCTTTATCTCGGAGGACATTTCGATCATAATTCCAACAACGGAGTCACCTAGTGCAG”, the binding signal was 9230 fluorescence intensity (a.u.).

For the sequence “CCGCCGCGGAGCCCGCGGAGTCCGCCACGGTGGGGAGGGACGGAGTCACCTAGTGCAG”, the binding signal was 8060 fluorescence intensity (a.u.).

“GCCACTACACAGTATGTTTCGCTTTCCTCGGGTCTACGGCCGGAGTCACCTAGTGCAG”: the binding signal is 8190 fluorescence intensity (a.u.).

Take “CCCTCTCTCTCTCTGCTTCGAATTCCTCACCTCACCTCACCGGAGTCACCTAGTGCAG”: the binding signal is 9110 fluorescence intensity (a.u.).

Take “GGGTTGGGTGGGTGCTGTAATATGGGGAGATACTGACTACCGGAGTCACCTAGTGCAG”: the binding signal is 19200 fluorescence intensity (a.u.).

For the sequence “TGATCATTCCACCACACTCCATTTCTTCCTCCTGACCTCCCGGAGTCACCTAGTGCAG”, the binding signal is 8240 fluorescence intensity (a.u.).

Regarding “CAAGAGCACGGTCTTCGAAAAACAACTTTGACCATCATTTCGGAGTCACCTAGTGCAG”, the binding signal is 9290 fluorescence intensity (a.u.).

Turning to “TTCATTTTTTCTCTTCGGTTTTCACTTGGATCTTGTTGATCGGAGTCACCTAGTGCAG”, the binding signal was 9560 fluorescence intensity (a.u.).

Take “AGACCCTCAAGCTTTCCTCTTTAGTTTTTATCTCATTTAACGGAGTCACCTAGTGCAG”: the binding signal is 8300 fluorescence intensity (a.u.).

Consider “GGGGTTTGATGGTCCTCTAAAGTTGTAGTAACTCGATATGCGGAGTCACCTAGTGCAG”, for which the binding signal was 8540 fluorescence intensity (a.u.).

For “TGATTTTGTTTGTTGATTCTTTTTCCTTGGAAAGAAACACCGGAGTCACCTAGTGCAG”, the binding signal is 8350 fluorescence intensity (a.u.).

As for “CTTCATATTTCTGTTACTGCAGTAGCCTTTGGGTTCCTTCCGGAGTCACCTAGTGCAG”, the binding signal was 8050 fluorescence intensity (a.u.).

For “GGGAGATTTGTTGCAACGGAGGGCATTGAGTGGTGGGGACCGGAGTCACCTAGTGCAG”, the binding signal is 8570 fluorescence intensity (a.u.).

Turning to “ACTCCCTCCTTCCCTAAATGTTTGACACCGTTGACTTTTTCGGAGTCACCTAGTGCAG”, the binding signal is 19600 fluorescence intensity (a.u.).

For “ATCTCATCCCAGCCAATTCTGCATTCCTATGAGCACGTACCGGAGTCACCTAGTGCAG”, the binding signal was 9750 fluorescence intensity (a.u.).

As to “AAAATCCAACGCTCAGGATCGTCTCCACCTCTCCACCGCGCGGAGTCACCTAGTGCAG”, the binding signal is 11500 fluorescence intensity (a.u.).

As to “CTTCGGTTTGGTTATTTCCTTTCCTCGCCGCTTTTTTCTTCGGAGTCACCTAGTGCAG”, the binding signal is 14000 fluorescence intensity (a.u.).

For “CAGAGGCGAGTCGATGGATGCCTTTGCTTGACTTTTTCGGCGGAGTCACCTAGTGCAG”, the binding signal is 8030 fluorescence intensity (a.u.).

Consider “CACCTCATTACCCGCGCTTTCCGCCCGGCAATTACACCAACGGAGTCACCTAGTGCAG”, for which the binding signal was 8830 fluorescence intensity (a.u.).

Consider “TGTCCCTGAGCTCACCAGCCGCTTCAGTTCATATCGTTGACGGAGTCACCTAGTGCAG”, for which the binding signal was 10300 fluorescence intensity (a.u.).

For “TTTGCCAGTAGGTCCAATACTTCGGATCTGTTTTTTTTTCCGGAGTCACCTAGTGCAG”, the binding signal was 8210 fluorescence intensity (a.u.).

Take “ATTATTTTTTTAATTTTCGGCACACGTGTTTTCAAATATTCGGAGTCACCTAGTGCAG”: the binding signal is 8850 fluorescence intensity (a.u.).

Consider “CCGTACCCTTAATTTGTTTTGCCTATTTAGGGTTTATTATCGGAGTCACCTAGTGCAG”, for which the binding signal is 8190 fluorescence intensity (a.u.).

These data come from article PMC7819943, “Rice protein-binding microarrays: a tool to detect cis-acting elements near promoter regions in rice”.
